Drawing on patent US20160031951A1, this text covers binding for one substance.

By UniProt entry, the sequences of proteins in these tests, tags left out. Residues count along the entry.
UniProt O95477: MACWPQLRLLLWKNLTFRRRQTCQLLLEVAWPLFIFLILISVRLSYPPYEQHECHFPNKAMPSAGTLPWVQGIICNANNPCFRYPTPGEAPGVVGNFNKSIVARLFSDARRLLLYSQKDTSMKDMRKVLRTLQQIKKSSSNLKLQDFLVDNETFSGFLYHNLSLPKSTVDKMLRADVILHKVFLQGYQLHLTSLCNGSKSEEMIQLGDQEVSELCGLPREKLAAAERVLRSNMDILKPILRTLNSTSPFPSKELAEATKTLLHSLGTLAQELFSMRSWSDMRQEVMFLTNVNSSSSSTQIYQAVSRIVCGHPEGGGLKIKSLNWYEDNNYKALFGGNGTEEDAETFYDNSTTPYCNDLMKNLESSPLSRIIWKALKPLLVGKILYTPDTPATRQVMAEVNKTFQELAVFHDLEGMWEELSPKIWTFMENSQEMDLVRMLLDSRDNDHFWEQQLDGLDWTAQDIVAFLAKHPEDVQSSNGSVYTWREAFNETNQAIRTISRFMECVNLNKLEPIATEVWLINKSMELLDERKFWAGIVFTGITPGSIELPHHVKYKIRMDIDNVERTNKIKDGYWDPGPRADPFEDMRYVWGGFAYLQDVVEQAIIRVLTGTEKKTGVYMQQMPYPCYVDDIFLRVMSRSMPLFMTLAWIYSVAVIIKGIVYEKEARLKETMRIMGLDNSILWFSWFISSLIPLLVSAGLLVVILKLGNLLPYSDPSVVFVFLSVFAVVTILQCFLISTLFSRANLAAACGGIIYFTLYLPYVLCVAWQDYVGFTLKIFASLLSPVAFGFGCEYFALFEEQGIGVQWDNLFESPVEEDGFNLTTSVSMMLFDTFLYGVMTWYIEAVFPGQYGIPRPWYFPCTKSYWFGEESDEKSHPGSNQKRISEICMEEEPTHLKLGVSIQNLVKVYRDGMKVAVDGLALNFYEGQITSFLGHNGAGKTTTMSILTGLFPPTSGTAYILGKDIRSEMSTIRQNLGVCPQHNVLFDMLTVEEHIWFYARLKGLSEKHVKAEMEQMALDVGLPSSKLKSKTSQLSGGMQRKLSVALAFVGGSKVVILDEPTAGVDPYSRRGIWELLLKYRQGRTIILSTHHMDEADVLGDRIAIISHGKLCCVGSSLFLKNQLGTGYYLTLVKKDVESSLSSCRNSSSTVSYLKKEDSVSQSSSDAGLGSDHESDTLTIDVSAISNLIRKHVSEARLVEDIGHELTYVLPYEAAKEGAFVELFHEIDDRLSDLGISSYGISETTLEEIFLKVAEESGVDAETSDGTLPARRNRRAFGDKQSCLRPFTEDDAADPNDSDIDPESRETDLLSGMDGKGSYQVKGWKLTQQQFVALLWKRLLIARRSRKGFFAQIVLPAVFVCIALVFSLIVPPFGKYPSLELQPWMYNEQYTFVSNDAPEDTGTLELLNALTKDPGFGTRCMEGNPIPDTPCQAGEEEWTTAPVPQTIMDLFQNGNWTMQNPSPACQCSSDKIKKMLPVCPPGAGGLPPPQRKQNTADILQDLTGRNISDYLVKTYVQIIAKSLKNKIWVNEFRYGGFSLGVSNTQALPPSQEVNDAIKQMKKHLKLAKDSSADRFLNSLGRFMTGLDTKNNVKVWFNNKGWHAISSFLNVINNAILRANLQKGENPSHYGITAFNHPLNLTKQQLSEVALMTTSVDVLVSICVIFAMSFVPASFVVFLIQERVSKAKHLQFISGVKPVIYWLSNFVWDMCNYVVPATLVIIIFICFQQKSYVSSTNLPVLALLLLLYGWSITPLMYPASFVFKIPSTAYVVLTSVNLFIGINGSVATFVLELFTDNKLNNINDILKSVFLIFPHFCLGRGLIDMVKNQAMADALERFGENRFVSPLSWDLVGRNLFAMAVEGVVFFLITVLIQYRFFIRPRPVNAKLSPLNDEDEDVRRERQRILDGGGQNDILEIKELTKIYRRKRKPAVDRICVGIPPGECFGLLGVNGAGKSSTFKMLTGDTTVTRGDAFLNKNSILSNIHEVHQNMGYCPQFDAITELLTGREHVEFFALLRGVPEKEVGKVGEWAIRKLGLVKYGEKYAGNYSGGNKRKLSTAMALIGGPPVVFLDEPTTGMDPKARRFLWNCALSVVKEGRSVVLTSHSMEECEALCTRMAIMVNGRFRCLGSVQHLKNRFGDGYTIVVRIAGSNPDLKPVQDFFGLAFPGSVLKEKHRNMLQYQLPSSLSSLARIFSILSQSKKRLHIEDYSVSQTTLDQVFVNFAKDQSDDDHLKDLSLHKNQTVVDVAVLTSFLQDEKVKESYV
UniProt P02647, residues 25-267: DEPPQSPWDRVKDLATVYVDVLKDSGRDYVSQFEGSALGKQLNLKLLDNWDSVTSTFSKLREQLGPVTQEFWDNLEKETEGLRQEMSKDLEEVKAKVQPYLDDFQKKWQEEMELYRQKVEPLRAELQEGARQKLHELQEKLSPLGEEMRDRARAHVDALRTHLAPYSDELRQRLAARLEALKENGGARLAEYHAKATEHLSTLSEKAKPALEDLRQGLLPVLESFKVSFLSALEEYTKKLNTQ

No constants are given. Whether binding was seen depends on the method and setting. Some entries that bind do so weakly or less than the wild type.

This assay deals with ABCA1 on BHK cells stably transfected with ABCA1 (UniProt O95477). The assay is described as follows: crosslinking assay and western blot with antibodies to peptide or apoA-I; BHK cells stably transfected with ABCA1.

“apolipoprotein A-I (from UniProt P02647 25-267) (ligand)”: the binding entry is on record as “binds”.
